Results of single-concentration screens

Values are the deposited “Percent Effect”, in %. The controls that fix the scale are not given in the record; negative values are as filed. This is an unselected part of the compounds tested. Two or more numbers in one place are separate tests of the same structure; such repeats can differ widely.

Mtb cholesterol medium: 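Whole-cell growth test on Mycobacterium tuberculosis, read after 4 days in a medium based on cholesterol and the lipid DPPC; the read-out is not stated. Concentration: 50 µM. The record gives no direction; compounds that gave an IC50 in retests scored well above the rest, so higher reads as more growth inhibition. About 69,000 compounds were tested under these conditions; 0.54% (about 370) showed 50% or more at least once.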
Mtb glucose medium: 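Phenotypic screen: M. tuberculosis growth, glucose 7H9 medium, 3 days; the read-out is not stated. Compounds at 50 µM. Higher reads as more growth inhibition (inferred: compounds with an IC50 in retests scored well above the rest). Size under these conditions: about 69,000 compounds, about 760 of them at 50% or above in at least one test.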

structure	Mtb cholesterol medium	Mtb glucose medium
CCCC(C)CS(=O)(=O)NCc1cccnc1N(C)C (centres undefined)	4.063	-0.00452
CC1CCCN1Cc1ccccc1-c1nc(C(C)(C)C)cc(=O)[nH]1 (centres undefined)	-69.95	-41.1 & 13.24
CC(=O)N1CC2(CCN(C(=O)c3ccoc3)C2)C1	1.671	23.4 & -0.1523
Cn1cnc2c1C(COCC1CC1)CN(C(=O)c1ccsc1)C2 (centres undefined)	-27.98 & -4.385	13.56 & -6.711
Nc1c(N2CCOCC2)ncnc1N1CCOCC1	-1.005	1.091
Cc1cc(-c2cnn(C)c2)ccc1OCC(N)=O	-0.5108	-15.55
Cc1ncsc1C(=O)N1CC(C)Sc2ccccc21 (centres undefined)	-1.088	12.16
COCCN1CCCN(C(=O)NC(C)Cn2cccn2)CC1 (centres undefined)	-2.718	-1.669
NC(=O)CCOc1ccc(NC(=O)c2ccccc2OC(F)F)cc1	6.334	14.36
c1ccc(-c2nc(CN3CCOC(Cn4cccn4)C3)cs2)cc1 (centres undefined)	6.764 & 14.76	19.78
NC(=O)c1cnc(NCC(=O)NCc2ccccc2)c(Cl)c1	-24.6	-19.68 & -6.554
O=C(Cc1ccccc1)N1CCC2(CCN2Cc2ccc(F)cc2)C1.O=C(O)C(F)(F)F (centres undefined)	-4.618	2.69
Cn1ccnc1CN(CCO)Cc1ccc(C(F)(F)F)cc1	23.82	25.98
[H][C@@]12CCN(C(=O)c3ccnnc3)C[C@@]1([H])O[C@@H](c1nc(C)cs1)C2	9.397 & -10.58	4.336 & -10.53
CN(C)C(=O)C1OC2(CCN(C(=O)c3ccoc3)CC2)c2ccccc21 (centres undefined)	-20.07	-13.41
Cc1nc(CNC(=O)N2CCCC(c3ncc[nH]3)C2)sc1C (centres undefined)	7.071	14.55 & -0.2848
Cc1cc(C2CCCN(C(=O)COc3ccccc3F)C2)n[nH]1 (centres undefined)	-5.345	7.644 & -5.233
Cn1nc(CN2CCCC2)c2c1CN(C(=O)c1ccc[nH]1)CC2	-10.7	-2.623 & -1.337
O=C(O)C(F)(F)F.O=C(O)C(F)(F)F.[H][C@]12C[C@H](C(=O)NC)N(C(C)=O)[C@@]1([H])CN(Cc1cccnc1OC)C2	-6.882 & 4.543	9.117
Cn1cc(CNC(=O)c2cc3c(s2)CCCCC3)cn1	26.85	37.02
[H][C@@]12COC[C@]1(CNS(C)(=O)=O)CN(C(=O)CC1CCCC1)C2	7.081	35.88
CC(NC(=O)c1cccs1)(C(N)=O)c1cccc(C(F)(F)F)c1 (centres undefined)	11.22	13.41
FC(F)(F)c1cc(C2CCCN(c3ncccn3)C2)n2ccnc2n1 (centres undefined)	4.012 & 5.643	6.265
CCCN(CC)C(=O)c1nc2c(n1C)CCN(Cc1ccccc1)C2	-18.69	-10.77
Fc1cccc(OC2CCN(Cc3ncc[nH]3)CC2)c1	-18.5	-21.66
Cc1cc(C)n(CC2CN(Cc3nc(C4CC4)no3)CCO2)n1 (centres undefined)	-11.63	-1.498
Cc1nn(C)c2cn(C(C)C(=O)NCc3ccccn3)nc12 (centres undefined)	-10.65	17.16
O=C(O)C(F)(F)F.[H][C@@]12CCN(CC3CCOCC3)C[C@@]1([H])O[C@@H](c1nc(C)no1)C2	-1.452	2.192 & 0.805
[H][C@@]12CCN(S(C)(=O)=O)C[C@]1(COc1nccc(C)n1)CCO2	1.167	30.74
COc1ncccc1NC(=O)C1CC1	-8.107	-3.167
COc1ccc(F)cc1C(=O)N1CCn2c(nnc2C(F)(F)F)C1	-5.83	-3.843 & -10.73
CC(=O)N1CCC(c2nccnc2Oc2ccccc2)CC1	-27.54	-3.328
O=S(=O)(NCCCn1cncn1)c1ccc2c(c1)CCCC2	8.552	11.97
CCOCC(=O)N1CCC2(CC1)CN(Cc1cccnc1)C(=O)CO2	-2.222 & -16.46	-11.26
NCCCC(=O)N1CCC2(CC1)CN(C(=O)c1ccc(Cl)cc1)CCO2	-9.854	-7.654
CN(CC(=O)N(C)C1CC1)C1CCN(c2ccc(Cl)cc2)CC1	-13.25	11.68 & -15.32
Cn1ccnc1CN1CCN(CC(O)c2cccc(F)c2)CC1 (centres undefined)	-9.073	-2.474
Cn1ccnc1CNC(=O)Nc1ccc(OC2CCC2)c(F)c1	2.002 & 2.201	-16.56
O=C(NCc1csc(Br)c1)c1ccc(=O)[nH]n1	-20.51	-21.68
[H][C@@]12CN(C(=O)NC3CCCC3)C[C@]1(C(=O)O)CN(c1ccccn1)C2	2.959	5.07 & 3.179
O=C(O)C(F)(F)F.O=C(O)C(F)(F)F.[H][C@@]12CN(Cc3ccccn3)C[C@]1([H])C(=O)N(c1ccsc1)C2	-14.43	3.415
Cc1cc(C)c(CNC(=O)CCC2CCCO2)c(=O)[nH]1 (centres undefined)	13.58	31.5
Cc1cnn(CCNCC(O)COc2ccc(Cl)cc2Cl)c1 (centres undefined)	24.87	2.773
Cc1oncc1C(=O)NCc1cc(=O)n2c(n1)CN(C)CCC2.O=C(O)C(F)(F)F	-22.12	-24.96
[H][C@]12CC[C@]([H])(CN(c3cc(N)nc(SC)n3)C1)N(CC1CC1)C2=O	-2.07	-24.38
COc1cccc(CC(=O)NCC(Cc2ccc(F)cc2)C(N)=O)c1 (centres undefined)	9.848	20.93
CC(C)c1noc(OCC(=O)N2CCCCC2C)n1 (centres undefined)	-8.687	2.039
CC(=O)N1CCC1c1cc(N2CC(O)C2)nc(C)n1 (centres undefined)	1.491 & -9.452	-13.46
COCC(c1ccccn1)N(C)C(=O)c1cc(-c2ccccc2O)n[nH]1 (centres undefined)	-4.008	21.63
COCC(=O)Nc1ccc2c(c1)C1(CCOCC1)CN2CCF.O=C(O)C(F)(F)F	6.804	5.082
Cc1cc(C)n(CC(=O)NC2CCCCNC2=O)n1 (centres undefined)	-10.21	7.338
CCN(CC)CC(=O)NCc1cccnc1-n1cnc2ccccc21	2.954	11.18
[H][C@]12CC[C@]([H])(CN(Cc3cccc(O)c3)C1)N(CCC)C2	3.791 & -20.51	-1.403 & -39.11
CC(C)C(=O)N1CCCC(c2cc(C(F)F)n3ncnc3n2)C1.Cl (centres undefined)	-25.67	-20.35
COc1ccccc1C(NC(=O)NC1CC1)c1noc(C)n1 (centres undefined)	7.583	20.85
Cc1cc(C(=O)N2C[C@H](c3ccccc3)[C@@H](N)C2)c2ccc(F)cc2n1	-4.494	-0.4198
CNC(=O)CN1CCC(NC(=O)Cc2ccc3c(c2)OCCO3)CC1	3.525	16.81
Cn1ccnc1CN1CCC2(COCCN(Cc3ccsc3)C2)C1 (centres undefined)	-8.372	6.132
O=C(O)C(F)(F)F.[H][C@@]12CCN(CC3CC3)[C@]1([H])CC[C@@H](C(=O)NCc1ccco1)O2	-3.011	-2.977 & 2.697
Cn1ccc2c(C(=O)N3CCCC(c4nnc[nH]4)C3)cccc21 (centres undefined)	-5.047	-41.98 & -7.733
O=C1Nc2ccccc2/C1=C1\CCCCCN1	-19.54	-9.008
O=C(NCc1csc(Br)c1)N1CCC(O)CC1	-14.19	8.938
CC1(C)OCC(CNC(=O)c2cnn(-c3ccc(Cl)cc3)c2N)O1 (centres undefined)	-17.03	-4.588
NC(=O)C1CCCN(c2ccc(CNC(=O)c3cnsn3)cc2)C1 (centres undefined)	-4.878	-6.95
CC(C1CC1)N(C)C(=O)c1ccc(-n2ncc(C#N)c2N)cc1 (centres undefined)	-8.189	1.747
CCc1nc(C2CCCN2Cc2nnc(C3CCC3)o2)no1 (centres undefined)	-6.177	18.7
CCn1c(CC2CCN(C(=O)C3CCOC3)CC2)nn(C)c1=O (centres undefined)	-15	-37.13
Cc1nc(N(C)C)nc(C)c1NC(=O)c1ccccc1F	5.533	23.61
CCN(CC)C(=O)C1CCN(c2ccc(Cl)cc2C#N)CC1	-18.36	3.006 & -28.04
[H][C@@]12CN(Cc3ccccn3)C[C@]1([H])OCCN2c1cccnc1	-11.07	3.871
[H][C@@]12CN(C(=O)c3ccnnc3)C[C@]1([H])C(=O)N(Cc1cccc(F)c1)C2	-7.776	12.15
Cc1ccc(F)c(NC(=O)NCCCn2nc3ccccn3c2=O)c1	-7.618	16.88
O=C(Cc1cccc(O)c1)N1CCCC(O)(CN2CCCC2)CC1 (centres undefined)	-22.43	-10.36
CCCN1CCCCC1C(=O)Nc1ccc(-c2nnc[nH]2)cc1 (centres undefined)	-4.016	-13.44
Cc1ccc(-c2nc(CN3CCOCC3)no2)cc1N1CCNC1=O	-15.1	-15.03
CC(C)c1cc(NC(CCO)c2ccccc2)n2nccc2n1 (centres undefined)	-1.295	6.155 & -1.462
Cc1ccc(C(=O)N2CCC3(CCN(C(=O)c4cccnc4)C3)CC2)o1.O=C(O)C(F)(F)F	3.939	-11.79
Cc1ccc(-n2nnc(C(=O)NCCS(N)(=O)=O)c2C2CC2)cc1	-2.832	-6.92 & -1.999

Some entries from above, unchanged:

- O=C(NCc1csc(Br)c1)N1CCC(O)CC1 | Mtb cholesterol medium: -14.19%; Mtb glucose medium: 8.938%
- Cn1ccnc1CNC(=O)Nc1ccc(OC2CCC2)c(F)c1 | Mtb cholesterol medium: 2.002% & 2.201%; Mtb glucose medium: -16.56%
- [H][C@]12CC[C@]([H])(CN(Cc3cccc(O)c3)C1)N(CCC)C2 | Mtb cholesterol medium: 3.791% & -20.51%; Mtb glucose medium: -1.403% & -39.11%
- [H][C@@]12CCN(S(C)(=O)=O)C[C@]1(COc1nccc(C)n1)CCO2 | Mtb cholesterol medium: 1.167%; Mtb glucose medium: 30.74%
- CC1CCCN1Cc1ccccc1-c1nc(C(C)(C)C)cc(=O)[nH]1 (centres undefined) | Mtb cholesterol medium: -69.95%; Mtb glucose medium: -41.1% & 13.24%
- Cc1cc(C2CCCN(C(=O)COc3ccccc3F)C2)n[nH]1 (centres undefined) | Mtb cholesterol medium: -5.345%; Mtb glucose medium: 7.644% & -5.233%
- Cn1ccnc1CN(CCO)Cc1ccc(C(F)(F)F)cc1 | Mtb cholesterol medium: 23.82%; Mtb glucose medium: 25.98%
- NCCCC(=O)N1CCC2(CC1)CN(C(=O)c1ccc(Cl)cc1)CCO2 | Mtb cholesterol medium: -9.854%; Mtb glucose medium: -7.654%

Source: ChEMBL document CHEMBL3988442, “University of Dundee, Small-Polar-MMV Screening Library” (2021).